Our source for the binding values is article PMC3143134.

Results are given in words; binding and its absence hold for the method and conditions named.

For this assay, the target named is human P58^IPK (residues 35-461; TPR domain and J domain) (human) (UniProt Q13217). Nature of the assay: SEC; Superdex 200 column, gel-filtration buffer 50 mM Tris-HCl pH 8.0, 300 mM NaCl; both purified. For orientation: SEC sorts molecules by how far they enter the pores of the column.

B1: human P58^IPK (residues 35-461; TPR domain and J domain) (domain or fragment, UniProt Q13217 35-461)
chain: ADVEKHLELGKKLLAAGQLADALSQFHAAVDGDPDNYIAYYRRATVFLAMGKSKAALPDLTKVIQLKMDFTAARLQRGHLLLKQGKLDEAEDDFKKVLKSNPSENEEKEAQSQLIKSDEMQRLRSQALNAFGSGDYTAAIAFLDKILEVCVWDAELRELRAECFIKEGEPRKAISDLKAASKLKNDNTEAFYKISTLYYQLGDHELSLSEVRECLKLDQDHKRCFAHYKQVKKLNKLIESAEELIRDGRYTDATSKYESVMKTEPSIAEYTVRSKERICHCFSKDEKPVEAIRVCSEVLQMEPDNVNALKDRAEAYLIEEMYDEAIQDYETAQEHNENDQQIREGLEKAQRLLKQSQKRDYYKILGVKRNAKKQEIIKAYRKLALQWHPDNFQNEEEKKKAEKKFIDIAAAKEVLSDPEMRKKFDDG
For the molecule B1, the binding entry is given as “no binding”.
